Measured values from PubChem BioAssay AID624202 (National Center for Advancing Translational Sciences (NCATS), 2012).
The entries are a selection whose mix differs from that of the whole data set. Calls of active or inactive are those of the source. Calls come from the whole dose curve; as a rule, active = well fitted activation curve with a large enough effect; inconclusive = small, poorly fitted or top-dose-only effect; inactive = no such curve, though single readings can be large or run the other way.

experiment: qHTS Assay to Identify Small Molecule Activators of BRCA1 Expression; conditions: MCF7-BRCA1-FFLuc reporter, luminescence, 48 h; note: nearly all actives have a fitted effect of over 80% in size
Excerpt: Functionally, BRCA1 has been implicated in a wide array of cellular activities, including DNA damage repair, cell-cycle checkpoint control, growth inhibition, apoptosis, transcriptional regulation, chromatin remodeling, protein ubiquitylation, and mammary stem cell self-renewal and differentiation. Reduction in BRCA1 levels is associated with an increase in tumor growth and resistance to anti-estrogenic agents, such as tamoxifen, while an increase in BRCA1 expression leads to cell growth arrest and apoptosis. […] The frequent loss of BRCA1 expression in invasive breast cancers in the absence of somatic mutation has been attributed to numerous mechanisms, including hypermethylation of the BRCA1 promoter, exaggerated ubiquitylation of BRCA1 protein, and improper intracellular localization. […]
5microl of MCF7-BRCA1-FFLuc cell suspension (400 cells/microl in phenol-red free MEM) are dispensed into Greiner white solid bottom 1536-well assay plates, yielding a final well density of 2000 cells/well. […] The NCGC in-house luciferase substrate reagent, Buglite, is then added (2.5microl) and plates incubated for 15 minutes, before being transferred to a ViewLux high-throughput CCD imager (PerkinElmer) wherein single end-point measurements of luminescence are acquired using a clear filter. […]
Potency is the fitted concentration of half-maximal effect.

| Structure (SMILES) | Potency |
| --- | --- |
| Cc1cc(=O)oc2cc(OCc3ccccc3)ccc12 | active: 3.16 µM |
